# Data from PubChem BioAssay AID2685 (National Center for Advancing Translational Sciences (NCATS), 2010).
# This is one part of the list. Further columns of the screen follow, without active or inactive calls. Compounds called inactive in the main read-out are mostly missing here. The note in brackets gives the kind of curve behind each potency; many fits are weak.
# Test: qHTS Assay for Lipid Storage Modulators in Drosophila S3 Cells;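 as to cell number change: cells counted by Cell Tracker Red CMTPX staining in the red channel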
# Settings: BODIPY lipid droplet fluorescence, 18-24 h; for cell number change: measured here: cell count max response, cells fed with added oleic acid
# In short: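 Drosophila S3 cells loaded with oleic acid (400 uM, as added) and compounds at several concentrations; lipid droplets imaged by 488-nm laser-scanning cytometry, 500–530 nm intensity and object ratio to cell channel. Percent activity normalized to 20 uM Triacsin C.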
# [1] = measured here: lipid fluorescence (Fed channel) AC50, cells fed with added oleic acid
# [2] = measured here: cell number channel AC50, cells fed with added oleic acid
SMILES,cell number change,AC50 [1],AC50 [2]
COc1ccccc1-c1cc(C(=O)NCc2ccco2)no1,-14.5%,,
Fc1ccc2c(c1)/C(=N/Nc1ccccn1)CCS2,24.9%,"20.6 µM [rising, single point]",
CCOc1ccc(OCC)c(NC(=O)CCn2cccc2)c1,-7.58%,"2.59 µM [rising, single point]",
COc1ccccc1N1C(=O)C2ON(c3ccccc3)C(c3ccc(N(C)C)cc3)C2C1=O (stereo not given),-24.4%,"23.1 µM [falling, single point]",
O=C(CCN1C(=O)/C(=C/c2ccc(F)cc2)SC1=S)NC1CCS(=O)(=O)C1 (stereo not given),14.2%,"18.4 µM [falling, single point]",
COc1cccc2c(=O)cc(C)n(CC(=O)Nc3ccccc3C)c12,-33.2%,"0.092 µM [rising, full curve]",
Cc1cc(C(=O)Cn2cc([N+](=O)[O-])ccc2=O)c(C)n1CC1CCCO1 (stereo not given),-14.6%,,
Cc1cccc(C)c1NC(=O)C(Cl)C(=O)c1ccccc1 (stereo not given),-18.3%,"0.58 µM [rising, single point]",
CCOC(=O)c1c(NC(=O)CSc2nc3ccccc3o2)sc(C(C)=O)c1C,19.8%,"1.46 µM [rising, full curve]",
Cc1ccc(SCc2nc3ccccc3n2CC(=O)Nc2ccc(Cl)cc2)cc1,,"7.31 µM [falling, partial curve, poor fit]",
COc1cccc(NC(=O)C/C(C)=N/NC(=O)c2ccccc2Cl)c1,9.35%,"16.4 µM [rising, single point]",
CCN(CC(=O)Nc1c(F)cccc1F)C(=O)C1CC(=O)N(c2ccc3c(c2)OCCO3)C1 (stereo not given),-17.3%,,
CC1CCCN(S(=O)(=O)c2ccc(Cl)s2)C1 (stereo not given),8.12%,"6.51 µM [falling, single point]",
CCC(=O)NC(Cc1ccccc1)c1ccc2c(c1)OCCCO2 (stereo not given),13%,,"4.11 µM [rising, partial curve, poor fit]"
CCOc1ccccc1NC(=O)c1cccc(NC(=O)C2CCCC2)c1,-36.5%,"2.06 µM [falling, partial curve]","29.1 µM [falling, single point]"
Cc1nc(Nc2cc(F)ccc2C)c2nnn(Cc3ccccc3)c2n1,-16.1%,,
CCOc1ccc(OCCn2c(=S)[nH]c3c(N)ncnc32)cc1,,"0.651 µM [rising, single point]",
Cc1[nH]nc2c1C(c1cc(Br)cs1)C(C#N)=C(N)O2 (stereo not given),10.8%,"2.91 µM [rising, partial curve]","3.26 µM [rising, partial curve]"
Cc1nnc(-c2ccco2)c2cn(-c3cccc(Br)c3)nc12,50%,"0.82 µM [rising, full curve, poor fit]","18.4 µM [rising, single point]"
CC(C)Cc1cc(C(=O)N2CCC(N3CCC(C(=O)N4CCCC4)CC3)CC2)n[nH]1,11.9%,"29.1 µM [rising, single point]",
CCN(CC)C(=O)COc1ccc2oc(C)c(C(=O)OC(C)C)c2c1,,"3.26 µM [rising, partial curve]",

SMILES,cell number change,AC50 [1],AC50 [2]
Clc1ccc(-c2csc(N3CCCCCC3)n2)cc1,-31%,"29.1 µM [falling, single point]","7.31 µM [falling, partial curve]"
Cc1cccc(N(CC(=O)Nc2ccc(F)cc2)S(C)(=O)=O)c1,52.6%,,"20.6 µM [rising, single point]"
O=C(COC(=O)c1ccc(NS(=O)(=O)c2cccs2)cc1)NCc1ccco1,-16%,"0.517 µM [falling, full curve, poor fit]",
Cc1ccc(C(=O)N2CCN(C(=O)CN3CCCC3)C2)cc1,-3.46%,,
Cc1ccccc1OCCSc1nnc(-c2ccncc2)n1C,-8.54%,,
O=C(Nc1cc(Cl)cc(Cl)c1)c1cccc(OC(F)F)c1,-36.5%,"18.4 µM [falling, single point]","18.4 µM [falling, single point]"
Cn1c(=O)oc2cc(S(=O)(=O)N3CCCC(C(=O)Nc4ccccn4)C3)ccc21 (stereo not given),-1.09%,"0.00517 µM [rising, full curve, poor fit]",
CCc1noc(C)c1C(=O)N(C)CC(=O)Nc1ccccc1Br,26.2%,"18.4 µM [rising, single point]",
CCN(C(=O)COC(=O)c1ccccc1SCC(=O)NC1CCCCCCC1)C1CCS(=O)(=O)C1 (stereo not given),,"0.00461 µM [falling, full curve, poor fit]",
O=C(CCCN1C(=O)NC2(CCCC2)C1=O)NCc1ccccc1,23.9%,"32.6 µM [rising, single point]",
Cc1cc(=O)[nH]c(SCC(=O)Nc2nc(-c3ccccc3)cs2)n1,2.19%,"29.1 µM [rising, single point]",
N#Cc1ccccc1NC(=O)c1cc(=O)c2ccccc2o1,-14%,"0.103 µM [rising, full curve, poor fit]",
COc1ccc(C2=NCCn3c2c2ccc(C(F)(F)F)cc2[n+]3[O-])cc1,-15.8%,,"4.11 µM [falling, single point]"
COc1ccc(NC(=O)CSc2ccccc2)cc1S(=O)(=O)N1CCCCC1,,,"0.58 µM [rising, single point]"
O=C(O)c1ccccc1-c1ccccc1C(=O)Nc1ccc2c(c1)[nH]c(=O)c1ccccc12,7.04%,"23.1 µM [rising, partial curve, poor fit]",
CN(CC(=O)Nc1ccc(Cl)c(C(F)(F)F)c1)C(=O)CCN1C(=O)C2CC=CCC2C1=O (stereo not given),11.2%,,
O=C(O)c1ccc(NC2CC(=O)N(Cc3ccccc3)C2=O)cc1 (stereo not given),-4.75%,,"1.84 µM [falling, partial curve]"
OC12CCCCC1C(c1ccc3c(c1)OCO3)N(Cc1ccccc1F)CC2 (stereo not given),-31.1%,,"20.6 µM [falling, single point]"
N#Cc1ccc(CN2CCN(CC(=O)NCCc3ccc(Cl)cc3Cl)CC2)cc1,-21.1%,"5.62 µM [falling, single point]",
Cc1ccccc1NC(=O)CCN1CCN(C/C=C/c2ccccc2)CC1,-4.35%,,
Cc1ccc(NC(=O)CN(C)C(=O)c2cc(-c3ccco3)nc3ccccc23)cc1,66.7%,,"1.03 µM [rising, full curve, poor fit]"

SMILES,cell number change,AC50 [1],AC50 [2]
COc1ccc2oc(C(=O)OC(C)C(=O)Nc3ccc(N4CCOCC4)cc3)c(C)c2c1 (stereo not given),,"8.2 µM [falling, partial curve]",
Cc1ccc(NC(=S)N2CCCC2)cc1Cl,-5.2%,,
Cc1cc(NC(=O)C2CCN(S(=O)(=O)Cc3ccccc3)CC2)ccc1-n1cnnn1,-29%,"11.6 µM [falling, partial curve, poor fit]",
CCOC(=O)c1cn(CC(=O)Nc2cccc(Cl)c2C)nn1,10.3%,"2.06 µM [rising, full curve]",
CC(C)(C)NC(=O)/C(=C\c1ccco1)NC(=O)c1ccco1,35.1%,,"0.00461 µM [rising, full curve, poor fit]"
CC(C)C(=O)Nc1ccc(N2CCCC2)cc1,,"18.4 µM [rising, partial curve]",
CC1CCN(C(=O)c2cc(Cl)ccc2NC(=O)c2ccco2)CC1,18.9%,,
Cc1ccc(NC(=O)Cc2ccc(Cl)cc2)cc1S(=O)(=O)N1CCCCCC1,-5.28%,"2.06 µM [rising, partial curve]","2.31 µM [rising, partial curve]"
CN1CCCCC1=NCCCn1cnc2c1c(=O)n(C)c(=O)n2C,119%,"29.1 µM [rising, single point]","20.6 µM [rising, single point]"
Nc1cc(N)nc(SCC(=O)N2CCN(C(=O)c3ccco3)CC2)n1,37.3%,"4.11 µM [falling, full curve]","29.1 µM [rising, single point]"
COc1ccc(S(=O)(=O)N2CCN(C3CC4CCC3C4)CC2)cc1 (stereo not given),-11.3%,"6.51 µM [falling, single point]",
CCC(=O)Nc1ccc2nc(C3CC3)n(Cc3ccccc3)c(=O)c2c1,20.6%,"0.082 µM [rising, full curve, poor fit]",
Cc1noc(/C=C/c2cccnc2)c1[N+](=O)[O-],-36.9%,"0.13 µM [falling, full curve, poor fit]","0.0731 µM [falling, full curve]"
O=C(NCc1ccc2c(c1)OCO2)C(=O)NCC1OCCCN1S(=O)(=O)c1cc(F)ccc1F (stereo not given),27.9%,"29.1 µM [rising, single point]",
CC(=O)Nc1sc(C)c(C)c1C(=O)OCC(=O)N(C)C1CCS(=O)(=O)C1 (stereo not given),41.9%,"29.1 µM [rising, single point]","0.92 µM [rising, full curve, poor fit]"
CC(=O)NNC(=O)CC(=O)Nc1nc(C23CC4CC(CC(C4)C2)C3)cs1,-6.76%,"18.4 µM [falling, partial curve, poor fit]",
Cc1ccc(N(Cc2ccc(C(=O)Nc3ccccc3C(=O)NCc3ccco3)cc2)S(C)(=O)=O)cc1C,55.3%,,"20.6 µM [rising, single point]"
S=C(NCc1ccncc1)NC1CCCC1,4.75%,,"0.0731 µM [falling, full curve, poor fit]"
COc1cccc(N2CC(C(=O)Nc3nnc(SCC(=O)c4ccccc4)s3)CC2=O)c1 (stereo not given),6.69%,"0.411 µM [rising, full curve, poor fit]",

# Record cards, as listed above.
# CC(=O)NNC(=O)CC(=O)Nc1nc(C23CC4CC(CC(C4)C2)C3)cs1 as listed: cell number change: -6.76%; AC50 [1]: 18.4 µM [falling, partial curve, poor fit]
# Cc1ccccc1NC(=O)CCN1CCN(C/C=C/c2ccccc2)CC1 as listed: cell number change: -4.35%
# CCOC(=O)c1cn(CC(=O)Nc2cccc(Cl)c2C)nn1 as listed: cell number change: 10.3%; AC50 [1]: 2.06 µM [rising, full curve]
# N#Cc1ccc(CN2CCN(CC(=O)NCCc3ccc(Cl)cc3Cl)CC2)cc1 as listed: cell number change: -21.1%; AC50 [1]: 5.62 µM [falling, single point]
